In PubChem BioAssay AID493014 (National Center for Advancing Translational Sciences (NCATS), 2011):
The whole screen tested about 340,000 compounds, of which about 170 (0.05%) were called active. This list was built around the results that the source calls inconclusive (neither active nor inactive); the mix of calls is not that of the screen. Calls follow the shape of the dose curve; as a rule, active = well fitted inhibition curve with a large enough effect in the signal ratio, with a control signal flat (not every such curve was filed as active); inconclusive = small, poorly fitted or top-dose-only effect, or effect the other way, or a change in a side signal; inactive = flat fitted curve, though single readings scatter; the % refers to the signal ratio. Potencies beside an inconclusive call are fits to weak or partial responses and may not hold up.

Test: qHTS Assay to Find Inhibitors of Chronic Active B-Cell Receptor Signaling;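 as to activity change, negative = inhibition: plate controls were basal doxycycline-induced cells for no effect and cells given 10 µM MG132 for full effect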
Details: ABC-DLBCL IkBa-CBG/CBR reporter, luminescence ratio (green luciferase fused to IkBa over red control in TMD8 lymphoma cells), 4 h; activity change, negative = inhibition: at 46.1 µM (top of the series)
Summary of the method: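 TMD8 ABC-DLBCL cells carrying doxycycline-inducible green luciferase fused to IkappaBalpha plus unfused red luciferase were exposed to compounds (up to 46 uM) for 4 hrs at 37C. Activity came from the overlap-corrected green/red luminescence ratio.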
Potency is read from the fitted curve at half-maximal effect.

**Q.** Which activity change, negative = inhibition does the source give for `O=C(Cn1nc2ccccc2n1)N/N=C/c1cc(Cl)cc([N+](=O)[O-])c1O` here?
**A.** inactive

**Q.** With `C=CCSc1ncccc1C(=O)NCc1ccc(C)cc1` as the molecule, how does the activity change, negative = inhibition read?
**A.** inconclusive: 7.75%

**Q.** For `O=C(Nc1ccc(Br)cc1)c1cc(S(=O)(=O)NC2CCCC2)ccc1F`, which activity change, negative = inhibition is on record?
**A.** inconclusive: 19%

**Q.** For `Cc1cccn2c(=O)c3cc(C(=O)NC4CCCCC4)c(=N)n(Cc4ccc(F)cc4)c3nc12`, which activity change, negative = inhibition is on record?
**A.** inactive

**Q.** For `CC(=O)c1cccc(NC(=O)C(OC(=O)c2ccccc2NS(=O)(=O)c2cccs2)c2ccccc2)c1` (stereo not drawn), which activity change, negative = inhibition is on record?
**A.** inconclusive: 8.23%

**Q.** For `Fc1ccc(-n2cc(-c3ccccc3)c3c(=S)nc[nH]c32)cc1`, which activity change, negative = inhibition is on record?
**A.** inactive

**Q.** With `CNC(=S)N/N=C/c1cc(C)n(-c2ccc(Cl)c(Cl)c2)c1C` as the molecule, how does the Potency read?
**A.** inconclusive: 20.6 µM [falling, single point]

**Q.** For `CC(C)(C)c1ccc(C(=O)c2c[nH]c(C(=O)NCc3ccco3)c2)cc1`, which activity change, negative = inhibition is on record?
**A.** inconclusive: 10.3%

**Q.** Which Potency does the source give for `Cc1cccc(NC(=O)c2ccc3c(c2)OCCO3)c1C` here?
**A.** inconclusive: 12.6 µM [falling, partial curve, poor fit]

**Q.** With `COc1ccc(NS(=O)(=O)c2ccc(C(=O)N(C)Cc3ccc(C)o3)cc2)cc1` as the molecule, how does the activity change, negative = inhibition read?
**A.** inactive

**Q.** Which activity change, negative = inhibition does the source give for `CCCCCC(=O)Nc1cc(N(C)C)nc2ccccc12` here?
**A.** inconclusive: 14%

**Q.** Which activity change, negative = inhibition does the source give for `O=C(NCc1cccnc1)c1ccc([N+](=O)[O-])o1` here?
**A.** inactive

**Q.** Which Potency does the source give for `CCCc1cc(=O)n2[nH]c(NCc3ccccc3Cl)nc2n1` here?
**A.** inconclusive: 22.4 µM [falling, single point]

**Q.** For `COc1ccc(C2=NN(C(=O)c3ccco3)C(c3ccco3)C2)cc1OC` (stereo not drawn), which Potency is on record?
**A.** inconclusive: 12.6 µM [falling, single point]

**Q.** Which activity change, negative = inhibition does the source give for `COc1ccc(C(=O)Nc2ccc3c(c2)n(C)c(=O)n3C)cc1OC` here?
**A.** inconclusive: -27.7%

**Q.** With `Cc1ccc(N2C(=O)c3cccc4c(N)ccc(c34)C2=O)c2cccnc12` as the molecule, how does the activity change, negative = inhibition read?
**A.** inconclusive: -5.44%

**Q.** With `O=C1Nc2ccccc2C(O)(C(=O)NCc2ccco2)N1c1ccc(Cl)cc1` (stereo not drawn) as the molecule, how does the activity change, negative = inhibition read?
**A.** inconclusive: 14.1%

**Q.** With `COc1ccc(-c2ccc(CCC(=O)O)n2NC(=O)c2ccc(O)cc2)cc1` as the molecule, how does the Potency read?
**A.** inconclusive: 17.8 µM [falling, partial curve]

**Q.** Which Potency does the source give for `O=C(Nc1nnc(-c2ccccc2Cl)o1)c1nc2ccccc2s1` here?
**A.** inconclusive: 23.1 µM [rising, single point]

**Q.** With `CCCOc1ccc(CN(CCO)CCO)cc1C(=O)OC` as the molecule, how does the activity change, negative = inhibition read?
**A.** inconclusive: -0.529%

**Q.** With `COc1ccc(OC)c(NC(=O)C2CCCN2S(=O)(=O)c2cccc3nsnc23)c1` (stereo not drawn) as the molecule, how does the activity change, negative = inhibition read?
**A.** inconclusive: -15.9%

**Q.** Which activity change, negative = inhibition does the source give for `CN(c1ccc(C(=O)N2CCCCCC2)cc1)S(=O)(=O)c1ccc(Cl)cc1` here?
**A.** inconclusive: -0.895%

**Q.** For `CC1CCN(CCNC(=S)Nc2ccc(Cl)cc2)CC1`, which activity change, negative = inhibition is on record?
**A.** inactive

**Q.** For `CCOC(=O)CSc1nnc(CNC(=O)c2cccc(C)c2)n1C`, which activity change, negative = inhibition is on record?
**A.** inconclusive: 2.38%

**Q.** With `CCN1CCN(C(c2ccccc2Cl)c2sc3nc(-c4ccco4)nn3c2O)CC1` (stereo not drawn) as the molecule, how does the activity change, negative = inhibition read?
**A.** inactive

**Q.** For `COC(=O)c1c(NC(=O)COC(=O)Cn2cnc3ccccc32)sc2c1CCCC2`, which activity change, negative = inhibition is on record?
**A.** inconclusive: 19.2%

**Q.** Which activity change, negative = inhibition does the source give for `N=c1n(Cc2ccccc2)c2ccccc2n1Cc1ccccc1` here?
**A.** inconclusive: -16.6%

**Q.** Which Potency does the source give for `CC(=O)c1sc(NC(=O)Cc2c(F)cccc2Cl)nc1C` here?
**A.** inconclusive: 25.1 µM [falling, single point]

**Q.** Which activity change, negative = inhibition does the source give for `O=C1c2ccccc2C(=O)N1c1ccc(Cl)cn1` here?
**A.** inconclusive: 3.58%

**Q.** For `COc1ccc(CNc2ccc(C)c(C)c2)cc1`, which activity change, negative = inhibition is on record?
**A.** inconclusive: 7.4%

**Q.** Which activity change, negative = inhibition does the source give for `CCOC(=O)c1sc2nc(C)nc(NCCc3ccccn3)c2c1C` here?
**A.** inconclusive: 8.31%

**Q.** Which activity change, negative = inhibition does the source give for `CCCn1c(=O)c(C(=O)NCc2ccco2)c(O)c2ccccc21` here?
**A.** inconclusive: 14.5%

**Q.** With `CC(C)CCNC(=O)C1CCN(S(=O)(=O)c2ccc3c(c2)CCC(=O)N3)CC1` as the molecule, how does the activity change, negative = inhibition read?
**A.** inconclusive: -11.1%

**Q.** For `C=CC[C@@H](CC(=O)N(CCO)Cc1ccccc1)C(=O)N[C@H](COC(=O)[C@@H](CC=C)Cc1ccc(F)cc1)Cc1c[nH]c2ccccc12`, which activity change, negative = inhibition is on record?
**A.** inconclusive: -4.16%

**Q.** Which activity change, negative = inhibition does the source give for `CCOc1cc2nc3c4ccccc4n(C)c3nc2cc1OCC` here?
**A.** inactive

**Q.** Which activity change, negative = inhibition does the source give for `CN(C(=O)CSc1ncnc2sccc12)C1CCCCC1` here?
**A.** inactive

**Q.** Which activity change, negative = inhibition does the source give for `Cc1cc(C)n2nc(SCc3cc(=O)oc4cc(O)ccc34)nc2n1` here?
**A.** inconclusive: -5.82%

**Q.** For `Cn1c(SCC(=O)Nc2nc(C(C)(C)C)cs2)nnc1C1CC1`, which activity change, negative = inhibition is on record?
**A.** inconclusive: 2.42%

**Q.** Which activity change, negative = inhibition does the source give for `Cc1ccc(N(CCC#N)C(=O)CCl)cc1C` here?
**A.** inconclusive: -15.8%

**Q.** For `Cc1ccc(S(=O)(=O)Nc2ccccc2N(C)S(=O)(=O)c2ccc(C)cc2)cc1`, which activity change, negative = inhibition is on record?
**A.** inconclusive: 10.8%

**Q.** For `OCCN(CC(O)Cn1ccc2ccccc21)CC(O)Cn1ccc2ccccc21` (stereo not drawn), which activity change, negative = inhibition is on record?
**A.** inconclusive: -2.84%

**Q.** For `COc1ccc(CCNC(C)C(=O)Nc2ccc(S(N)(=O)=O)cc2)cc1` (stereo not drawn), which activity change, negative = inhibition is on record?
**A.** inactive

**Q.** With `COC(CNC(=O)C1CCCN1C(=O)OCc1ccccc1)OC` (stereo not drawn) as the molecule, how does the activity change, negative = inhibition read?
**A.** inactive

**Q.** Which activity change, negative = inhibition does the source give for `COc1ccc(NC(=O)c2sc(NC(=O)C3CC3)nc2C)cc1` here?
**A.** inconclusive: -28.7%

**Q.** For `CCc1cc(C(=O)COc2ccccc2F)c(O)cc1O`, which activity change, negative = inhibition is on record?
**A.** inconclusive: 1.13%

**Q.** For `O=C(Nc1ccc2c(c1)OCO2)N1CCN(S(=O)(=O)c2ccc(Cl)cc2)CC1`, which activity change, negative = inhibition is on record?
**A.** inconclusive: -1.53%

**Q.** With `CCOC(=O)c1cnc2c(C)cc(C)cc2c1Nc1ccc(S(=O)(=O)Nc2ncccn2)cc1` as the molecule, how does the activity change, negative = inhibition read?
**A.** inactive

**Q.** Which Potency does the source give for `CC1=C(C(=O)Nc2cccnc2)C(c2ccccn2)n2nnnc2N1` (stereo not drawn) here?
**A.** inconclusive: 20 µM [falling, single point]

**Q.** With `O=C(NCC1CCCO1)c1ccc(Cn2c(=S)[nH]c3ccccc3c2=O)cc1` (stereo not drawn) as the molecule, how does the Potency read?
**A.** inconclusive: 0.398 µM [falling, full curve, poor fit]

**Q.** With `Cc1ccc(N2C(=O)N3[C@H](c4ccc(F)cc4)[C@@H]4C(=O)N(C5CCCCC5)C(=O)[C@@H]4[C@]3(Cc3ccccc3)C2=O)cc1` as the molecule, how does the activity change, negative = inhibition read?
**A.** inactive

**Q.** Which activity change, negative = inhibition does the source give for `COc1ccc(OCC(O)Cn2c(=N)n(CCN3CCCCC3)c3ccccc32)cc1` (stereo not drawn) here?
**A.** inconclusive: -19.7%

**Q.** With `O=[N+]([O-])c1c(Nc2ccccn2)cc(Cl)c2nonc12` as the molecule, how does the activity change, negative = inhibition read?
**A.** inconclusive: 7.64%

**Q.** Which activity change, negative = inhibition does the source give for `Nc1nc(CN2CCN(C(c3ccccc3)c3ccccc3)CC2)nc(Nc2ccccc2)n1` here?
**A.** inactive
